Test results as given in PubChem BioAssay AID540256 (National Center for Advancing Translational Sciences (NCATS), 2011).
In all, about 300,000 compounds went through this assay and about 3,700 (1.2%) were called active. Inconclusive means that the source gave no clear call. Such entries were picked first, then a sample of the others. Calls come from the whole dose curve; tested in HEK293 cells. Potencies beside an inconclusive call are fits to weak or partial responses and may not hold up.

Assay: qHTS for Inhibitors of binding or entry into cells for Lassa Virus; note: nearly all actives have a fitted effect of over 50% in size
Conditions: Lassa virus pseudotype entry inhibition, cell reporter; activity change, negative = inhibition: at 37.9 µM (top of the series) unless noted
% is set by controls: 0 for no effect and ±100 for the full control effect; potency is the fitted concentration of half-maximal effect.

Compound | activity change, negative = inhibition | Potency
CCc1ccccc1NC(=O)c1nc2nc(C)cc(C(F)F)n2n1 | inactive: -0.648% [at 46.1 µM] | –
COc1cc(C(O)C(=O)O)ccc1O (stereo not given) | – | inconclusive: 0.092 µM [inhibitor, partial curve, poor fit]
CCC1(CC)NC(=O)N(CC(=O)OCC(=O)Nc2ccc(F)c(F)c2F)C1=O | – | inconclusive: 2.82 µM [activator, full curve]
CCCc1nc2ccccc2c(=O)n1/N=C/c1ccccc1O | – | inconclusive: 11.2 µM [inhibitor, partial curve, poor fit]
CC(C)N1CCC(N2CCN(C/C=C/c3ccc(F)cc3)CC2CCO)CC1 (stereo not given) | – | inconclusive: 35.5 µM [inhibitor, single point]
Cc1ccnc(SCc2ccc([N+](=O)[O-])cc2)n1 | – | inconclusive: 17.8 µM [activator, single point]
CCOc1ccc(-c2cc(NC(=O)Nc3ccccc3Cl)c(C(=O)OC)s2)cc1 | – | inconclusive: 35.5 µM [activator, partial curve, poor fit]
COCCn1c(-c2ccc(-c3ccc([N+](=O)[O-])cc3Br)o2)nc2c1c(=O)[nH]c(=O)n2CC(C)C | – | inconclusive: 35.5 µM [inhibitor, single point]
O=C(CCc1ccccc1)NC(NC(=S)Nc1ccc(Br)cc1)C(Cl)(Cl)Cl (stereo not given) | – | inconclusive: 7.3 µM [inhibitor, partial curve]
CCOC(=O)N1CCN(C/C(Cl)=C/c2ccccc2)CC1 | – | inconclusive: 0.398 µM [inhibitor, single point]
Cn1c(SCc2cc(=O)[nH]c3ccccc23)nnc1-c1ccco1 | inactive: 4.06% | –
CCOc1ccc(NS(=O)(=O)c2ccc(C(=O)N3CCN(c4ncccn4)CC3)cc2)cc1 | – | inconclusive: 35.5 µM [inhibitor, single point]
Cc1ccccc1CSc1nc2c([nH]c3ccccc32)c(=O)n1-c1ccccc1 | inactive: 25.6% [at 46.1 µM] | –
CCOC(=O)c1n[nH]c2ccccc12 | inactive: 14.5% | –
O=C(Nc1ccc2c(c1)CCC2)c1ccccc1 | – | inconclusive: 4.47 µM [inhibitor, partial curve, poor fit]
COC(=O)c1c(NC(=O)CCCC(=O)O)sc2c1CCCCC2 | – | inconclusive: 0.501 µM [inhibitor, partial curve, poor fit]
CCOC(=O)COc1ccc(CC)cc1C(=O)c1ccn2nc(-c3ccc(C)cc3)cc2n1 | – | inconclusive: 8.91 µM [inhibitor, partial curve, poor fit]
O=c1cc(CNc2ccc(Br)cc2)nc2sccn12 | inactive: 3.72% | –
CCOc1ccc(CNC(=O)Cn2nc(N3CCN(c4ccccc4)CC3)ccc2=O)cc1 | – | inconclusive: 7.08 µM [inhibitor, partial curve, poor fit]
CCCC[n+]1ccn(C2=C([O-])c3ccccc3C(=O)/C2=N\S(=O)(=O)c2ccccc2)c1 | – | inconclusive: 35.5 µM [inhibitor, single point]
CCOC(=O)c1c(/N=C/N(C)C)sc(/C=N/Nc2ccccc2)c1-c1ccccc1Cl | – | inconclusive: 11.2 µM [inhibitor, partial curve]
CCn1c(SCc2ccccc2)nnc1C1CCCCC1 | inactive: -10.7% | –
Cc1c(Cl)c(=O)n2c(=O)c(Cl)c(C)n12 | inactive: 19.2% [at 46.1 µM] | –

Compound | activity change, negative = inhibition | Potency
O=C(CSc1nnnn1-c1ccccc1)NC(=O)NCc1ccco1 | – | inconclusive: 8.91 µM [inhibitor, partial curve]
COCCSc1nnc(NC(=O)C(C)(C)C)s1 | – | inconclusive: 5.01 µM [activator, partial curve, poor fit]
Cc1ccc(C)c(N2CCN(C(=O)CCc3c(C)nn(-c4ccc(N5CCCC5)nn4)c3C)CC2)c1 | – | inconclusive: 1.12 µM [activator, single point]
Cc1ccc(C(=O)Nc2c(C)nc3ccccn3c2=O)cc1 | – | inconclusive: 3.98 µM [activator, full curve]
COc1ccccc1CNC(=O)CSc1nc2nc(C)c(Cc3ccccc3C)c(C)n2n1 | – | inconclusive: 3.55 µM [inhibitor, single point]
O=C(NCc1ccc(Cl)cc1)C1CCN(C(=O)c2cnn(-c3ccccc3)c2-n2cccc2)CC1 | – | inconclusive: 1.78 µM [inhibitor, partial curve, poor fit]
CN(C)S(=O)(=O)c1ccc(NC(=O)CN2CCN(c3ccccn3)CC2)cc1 | – | inconclusive: 22.4 µM [inhibitor, single point]
COc1cccc(CN2C(=O)c3ccccc3C2C(=O)NCCc2ccccc2)c1 (stereo not given) | – | inconclusive: 8.91 µM [inhibitor, partial curve, poor fit]
COc1ccccc1C=CC(=O)C=Cc1ccccc1OC | – | active: 4.47 µM
CCOC(=O)CN1N=C(/C=C/c2ccc(C)cc2)CCC1=O | inactive: -15.7% | –
O=C(CCc1nc2ccccc2c(=O)[nH]1)OCc1ccc(Cl)cc1Cl | inactive: 2.5% | –
Cc1ccc(S(=O)(=O)n2cc(CO)c3ccccc32)cc1 | inactive: -14.3% [at 46.1 µM] | –
CCN(CC)S(=O)(=O)c1cccc(C(=O)NC(Cc2c[nH]c3ccccc23)c2nnc3n2CCCCC3)c1 (stereo not given) | – | inconclusive: 9.2 µM [inhibitor, partial curve, poor fit]
Cc1cc(N/C(=N\S(=O)(=O)c2ccc(F)cc2F)c2ccccc2)no1 | inactive: -22.5% | –
CCN(CC)CCNC(=O)c1[nH]c2ccc(OCc3ccccc3)cc2c1C | – | inconclusive: 35.5 µM [inhibitor, single point]
Cc1nc(N)ncc1Sc1ccc(Cl)cc1 | – | inconclusive: 2.82 µM [activator, full curve]
O=C1C(=C2CCCCC2)SC(=S)N1Cc1ccco1 | inactive: -0.0787% | –
COc1ccc(CNc2nc(-c3ccc(Cl)cc3)cc(C(F)(F)F)n2)cc1 | – | inconclusive: 25.1 µM [inhibitor, single point]
O=C(CCCCCN1C(=O)CCC1=O)Nc1ncn[nH]1 | inactive: 9.58% | –
CC(NC(=O)c1ccccc1Br)c1nnc(SCC(=O)NC2=NCCS2)n1C (stereo not given) | inactive: 1.38% [at 46.1 µM] | –
CCOc1ccc(S(=O)(=O)n2cc(-c3ccccc3)c(N)n2)cc1 | inactive: -11.8% | –
CC(C)[C@H](NS(=O)(=O)c1ccccc1)C(=O)OCC(=O)Nc1cccc(S(N)(=O)=O)c1 | inactive: -12.9% | –

In the list so far, 2 contain a nitro group on carbon:
Compound | activity change, negative = inhibition | Potency
Cc1ccnc(SCc2ccc([N+](=O)[O-])cc2)n1 | – | inconclusive: 17.8 µM [activator, single point]
COCCn1c(-c2ccc(-c3ccc([N+](=O)[O-])cc3Br)o2)nc2c1c(=O)[nH]c(=O)n2CC(C)C | – | inconclusive: 35.5 µM [inhibitor, single point]
